In PubChem BioAssay AID220 (DTP/NCI, 2004):
The list shows only some results of the screen, not a fair sample: it is rich in T/C values a quarter to a half above the control, in often repeated tests (any T/C) and in doses without a T/C. Further doses and runs are listed elsewhere. T/C gives the treated animals as a percentage of the vehicle group. Schedule codes are those of the source, read here as Q, the interval in days (D) or hours (H), X, the number of doses. Some T/C values are followed by the survivors on the day toxicity was checked, most often the fifth; where none is given, no animal had died by that day. Some doses have a count of surviving animals in place of a T/C: the source files T/C as zero there, which appears to mark a toxic dose or a test without result, not a measured value. Counts of survivors are from the toxicity check (mostly the fifth day) where no day follows; animals may have died later.

Test system: CD8F1 mice, subcutaneous mammary adenocarcinoma, T/C%
Assay: NCI In Vivo Anticancer Drug Screen. Data for tumor model Mammary Adenocarcinoma CD8F1 (subcutaneous) in CD8F1
Details: higher T/C = larger tumour
How it was run: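 Ratio of treated to vehicle-control outcome, based on either survival or tumor size, in mice bearing transplantable tumors given the test compound.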

[1] = T/C endpoint: median tumor weight (est.), dose: 200.0 mg/kg/injection, schedule: Q07DX005 (ip), vehicle: saline
[2] = T/C endpoint: median tumor weight (est.), dose: 4.0 mg/kg/injection, schedule: Q07DX005 (ip), vehicle: saline
[3] = T/C endpoint: median tumor weight change, dose: 500.0 mg/kg/injection, schedule: Q01DX001 (ip), vehicle: Klucel (hydroxypropylcellulose) (HPC)
[4] = T/C endpoint: median tumor weight change, dose: 1000.0 mg/kg/injection, schedule: Q01DX001 (ip), vehicle: Klucel (hydroxypropylcellulose) (HPC)
[5] = T/C endpoint: median tumor weight change, dose: 2000.0 mg/kg/injection, schedule: Q01DX001 (ip), vehicle: Klucel (hydroxypropylcellulose) (HPC)
[6] = T/C endpoint: median tumor weight change, dose: 1000.0 mg/kg/injection, schedule: Q01DX001 (ip), vehicle: saline with Tween-80

`O=C(Nc1ccc(N=C=S)cc1Cl)c1cc(Cl)cc(Cl)c1O` was tested, and the survivor count (T/C endpoint: median tumor weight (est.), dose: 100.0 mg/kg/injection, schedule: Q07DX005 (ip), vehicle: Klucel (hydroxypropylcellulose) (HPC)) was 0 of 10 on day 30, the survivor count (T/C endpoint: median tumor weight (est.), dose: 200.0 mg/kg/injection, schedule: Q07DX005 (ip), vehicle: Klucel (hydroxypropylcellulose) (HPC)) was 0 of 10 on day 30 and the survivor count [1] was 1 of 10 on day 30. For the same compound, the survivor count (T/C endpoint: median tumor weight (est.), dose: 400.0 mg/kg/injection, schedule: Q07DX005 (ip), vehicle: Klucel (hydroxypropylcellulose) (HPC)) was 0 of 10 on day 30.

With `C1CC[N-]CC1.C1CC[N-]CC1.C1CC[N-]CC1.[Cl][Rh]([Cl])[Cl]` the survivor count [2] was 5 of 10, the survivor count (T/C endpoint: median tumor weight (est.), dose: 128.0 mg/kg/injection, schedule: Q07DX005 (ip), vehicle: saline) was 6 of 10 and the survivor count [1] was 0 of 10 on day 30.

For `CCc1c(CC(=O)O)c2cc(C)ccc2n1Cc1ccc(Cl)cc1`, the survivor count [3] was 0 of 10 on day 24, the survivor count [4] was 1 of 10 on day 24 and the survivor count [5] was 0 of 10 on day 24.

With `Cc1cnc(/C=N\NC(N)=S)c2cccc(N)c12` the T/C (T/C endpoint: median tumor weight (est.), dose: 3.12 mg/kg/injection, schedule: Q07DX005 (ip), vehicle: saline with Tween-80, evaluated on day 30) was 132 % of control.

`C[Si](C)(C)n1nnn(-c2ccccc2)c1=O` was tested, and the T/C (T/C endpoint: mean tumor weight, dose: 12.5 mg/kg/injection, schedule: Q07DX006 (ip), vehicle: saline with Tween-80, evaluated on day 41) was 127 % of control, the T/C (T/C endpoint: mean tumor weight, dose: 100.0 mg/kg/injection, schedule: Q07DX006 (ip), vehicle: saline with Tween-80, evaluated on day 41) was 138 % of control and the T/C (T/C endpoint: mean tumor weight, dose: 200.0 mg/kg/injection, schedule: Q07DX006 (ip), vehicle: saline with Tween-80, evaluated on day 41) was 140 % of control. The T/C (T/C endpoint: median tumor weight (est.), dose: 100.0 mg/kg/injection, schedule: Q07DX005 (ip), vehicle: saline with Tween-80, evaluated on day 30) was 134 % of control.

For `Nc1cccc(=O)[nH]1`, the T/C (T/C endpoint: median tumor weight (est.), dose: 100.0 mg/kg/injection, schedule: Q07DX005 (ip), vehicle: saline, evaluated on day 30) was 143 % of control, the T/C (T/C endpoint: median tumor weight (est.), dose: 200.0 mg/kg/injection, schedule: Q07DX005 (ip), vehicle: saline, evaluated on day 30) was 144 % of control and the survivor count (T/C endpoint: median tumor weight change, dose: 2000.0 mg/kg/injection, schedule: Q01DX001 (ip), vehicle: saline) was 0 of 10 on day 28.

In the case of `COc1c(CNC(=O)CCl)cc2[nH]c(C)cc2c1CNC(=O)CCl`, the T/C (T/C endpoint: median tumor weight (est.), dose: 25.0 mg/kg/injection, schedule: Q07DX005 (ip), vehicle: Klucel (hydroxypropylcellulose) (HPC), evaluated on day 30) is reported as 135 % of control, the survivor count [3] is reported as 0 of 10 on day 29 and the survivor count [4] is reported as 0 of 10 on day 29. The survivor count [5] was 0 of 10 on day 29.

In the case of `C=C(C)C1C2CC3(C)C4(CO4)C4OC4C3(O)C1C(=O)O2` (centres undefined), the survivor count (T/C endpoint: median tumor weight change, dose: 2.5 mg/kg/injection, schedule: Q01DX001 (ip), vehicle: Klucel (hydroxypropylcellulose) (HPC)) is reported as 6 of 10 on day 30, the survivor count (T/C endpoint: median tumor weight change, dose: 5.0 mg/kg/injection, schedule: Q01DX001 (ip), vehicle: Klucel (hydroxypropylcellulose) (HPC)) is reported as 1 of 10 on day 30 and the survivor count (T/C endpoint: median tumor weight change, dose: 10.0 mg/kg/injection, schedule: Q01DX001 (ip), vehicle: Klucel (hydroxypropylcellulose) (HPC)) is reported as 0 of 10 on day 30. The survivor count (T/C endpoint: median tumor weight change, dose: 20.0 mg/kg/injection, schedule: Q01DX001 (ip), vehicle: Klucel (hydroxypropylcellulose) (HPC)) was 0 of 10 on day 30.

In the case of `[O-][n+]1c(CN2CCCCC2)nc2cccc3c2c1-c1ccccc1-3`, the survivor count [6] is reported as 3 of 10 on day 35.

With `CCC1=C[C@H]2CN(CCc3c([nH]c4ccccc34)[C@@](C(=O)OC)(c3cc4c(cc3OC)N(C)[C@H]3[C@@](O)(C(=O)NC)[C@H](OC(C)=O)[C@]5(CC)C=CCN6CC[C@]43[C@@H]65)C2)C1` the T/C (T/C endpoint: median tumor weight (est.), dose: 0.25 mg/kg/injection, schedule: Q07DX005 (ip), vehicle: water, evaluated on day 32) was 139 % of control, the survivor count (T/C endpoint: median tumor weight (est.), dose: 2.0 mg/kg/injection, schedule: Q07DX005 (ip), vehicle: saline) was 4 of 10 on day 30 and the survivor count [2] was 0 of 10 on day 30. The survivor count (T/C endpoint: median tumor weight (est.), dose: 4.0 mg/kg/injection, schedule: Q07DX005 (ip), vehicle: water) was 0 of 10 on day 32.

`CN(C)P(=O)(Oc1ccccc1)N(C)C` was tested, and the T/C (T/C endpoint: median tumor weight change, dose: 250.0 mg/kg/injection, schedule: Q01DX001 (ip), vehicle: saline with Tween-80, evaluated on day 39) was 139 % of control [9 of 10 alive on day 39], the survivor count [6] was 2 of 10 on day 39 and the survivor count (T/C endpoint: median tumor weight change, dose: 2000.0 mg/kg/injection, schedule: Q01DX001 (ip), vehicle: saline with Tween-80) was 1 of 10 on day 39.
